In patent publication US20030054411A1, “GPR motifs and uses thereof” (priority 2001, published 2003):
Part of at least one peptide drawing is inferred or uncertain, most often the ends. Where no end group is shown, it is not given here.

Chains of the proteins cited; added tags and fusions are not shown. Residues count along the entry.
UniProt P09471, 2-354 limits assumed: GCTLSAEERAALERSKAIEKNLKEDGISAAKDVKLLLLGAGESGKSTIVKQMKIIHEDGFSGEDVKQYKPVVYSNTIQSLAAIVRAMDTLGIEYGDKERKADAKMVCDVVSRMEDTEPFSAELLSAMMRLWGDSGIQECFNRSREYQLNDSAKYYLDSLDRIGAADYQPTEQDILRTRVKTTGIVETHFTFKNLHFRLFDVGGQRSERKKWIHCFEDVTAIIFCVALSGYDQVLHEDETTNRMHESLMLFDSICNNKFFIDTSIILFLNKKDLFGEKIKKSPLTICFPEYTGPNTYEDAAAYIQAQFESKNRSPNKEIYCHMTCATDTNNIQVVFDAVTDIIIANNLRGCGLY

How the values were obtained:
[1] = test system: 5-HT1A receptor coupling to Giαβγ; experiment: High affinity agonist binding, 5-HT1A receptor membranes reconstituted with Gi; settings: peptide 114 μM; 3H-5-HT
[2] = biological target: T1, 5-HT1A receptor coupling to Go (Homo sapiens, UniProt P09471); experiment: High affinity agonist binding, 5-HT1A receptor membranes reconstituted with Go; settings: peptide 114 μM; 3H-5-HT
T1 construct: made in house; host or cells: Sf9 cell membranes (receptor); purified G-proteins added

TMGEEDFFDLLAKSQSKRMDDQRVDLAG-NH2 [GPR consensus peptide]
high affinity binding of agonist, receptor reconstituted with Giαβγ [1]: inhibited | high affinity binding of agonist, Gi versus Go [2]: selective for Gi versus Go
